Data taken from patent publication US20120114639A1, “COMPOSITIONS AND METHODS FOR INHIBITING VIRAL AND/OR BACTERIAL INFECTIONS” (priority 2010, published 2012).
At least one compound was matched to its structure with a doubt left. Some results were stated once for a whole list of compounds, not compound by compound.

Experiments:
[1] = test system: HPV16; assay: HPV16 PsV infection of HaCaT cells, luciferase assay; assay type: cell-based, human papillomavirus; conditions: for HPV16 infection of HaCaT cells (in words): CM, luciferase 24 hours p.i.; for block of HPV16 infection / reduction of infectivity: HaCaT in CM, 24 hours in presence of inhibitor, 1 μM AG1478, 100 nM PD168393, 100 μM genistein, 1 μM PD173074, 100-600 nM cetuximab, 100 vge/cell
Description: FIG. 2. […] (A, B) Immunoblot for syndecan-1 (polyclonal syndecan-1 Ab) after 24 hours at 37° C. in CM (A) or post starvation in SFM and after six hours at 37° C. in Tyrode's Buffer (B); immunoblot for HPV16 L1 released into CM post virus binding for indicated times (C) or 24 hours (E). […] Cells were untreated (U) or pre-treated with BM or MM for one hour, then exposed to HPV16 PsV in the presence of inhibitors in CM. Infection was assayed by quantifying luciferase levels at 24 hours p.i. (F). Data are represented as mean±SEM of three experiments. (G-H) IC50 of HPV16 infectivity inhibition by MMIP inhibitors batimastat and mariniastat. HaCaT cells incubated with serial dilutions of batimastat or marimastat in CM, for one hour before incubation with 100 viral genome equivalents (vge)/cell HPV16, one hour at 4° C. After washing away unbound virus, cells were incubated for 24 hours at 37° C. in the presence of inhibitors. HPV16 infection was measured with luciferase assay. Data are represented as mean±SEM of 3 experiments.
FIG. 7. […] (A) Relative HPV16 infection of HaCaT cells in the presence of specific GFR and protein tyrosine kinase inhibitors. […] Cells were exposed to HPV16 PsV at 100 vge/cell for one hour at 4° C., then washed extensively and shifted to 37° C. in the presence of the indicated inhibitor in CM for 24 hours at which time they were analyzed for luciferase expression. Data are represented as mean±SEM of three experiments. (B-C) EGFR knockdown was accomplished using siRNA to EGFR and the percent of EGFR protein remaining in EGFR-siRNA transfected HaCaT cells was determined by immunoblot and compared by densitometry to EGFR levels in cells transfected with a negative control siRNA at 48 hours post transfection. Four separate transfections were analyzed (B) and HPV16 PsV infection levels were measured at 24 hours post infection (48 hours post transfection) in each (C). Error bars represent the average of triplicate luciferase readings from the four transfections. (D) Cells were pre-treated four hours with 100 μm monastrol, pre-treated with monastrol for four hours plus PD168393 for duration, or pre-treated with PD168393 for four hours plus monastrol for duration. […] HaCaT cells starved in SFM (four hours) were exposed to HPV16 in CM (positive control) or SFM. After washing away unbound virus, cells were incubated for 24 hours in CM, Ty (Tyrode's buffer containing 0.05% BSA), SFM, syndecan-1 depleted CM (IP-syd), or EGF-depleted CM (IP-EGF). Infection was quantified by luciferase assay 24 hours post shift to 37° C. […] Infections were quantified by luciferase assay; bars represented the mean SEM of three individual experiments. […] The fractions of cells in G1 (1n), S (intermediate), and G2/M (2n) phases were expressed as percentages of the total.

[2] = test system: HaCaT cells; assay: Cell cycle analysis by propidium iodide flow cytometry; assay type: cell-based, human; conditions: HaCaT cells in CM infected with HPV16, same inhibitor conditions as infection assays
Description: FIG. 7. […] (A) Relative HPV16 infection of HaCaT cells in the presence of specific GFR and protein tyrosine kinase inhibitors. […] Cells were exposed to HPV16 PsV at 100 vge/cell for one hour at 4° C., then washed extensively and shifted to 37° C. in the presence of the indicated inhibitor in CM for 24 hours at which time they were analyzed for luciferase expression. Data are represented as mean±SEM of three experiments. (B-C) EGFR knockdown was accomplished using siRNA to EGFR and the percent of EGFR protein remaining in EGFR-siRNA transfected HaCaT cells was determined by immunoblot and compared by densitometry to EGFR levels in cells transfected with a negative control siRNA at 48 hours post transfection. Four separate transfections were analyzed (B) and HPV16 PsV infection levels were measured at 24 hours post infection (48 hours post transfection) in each (C). Error bars represent the average of triplicate luciferase readings from the four transfections. […] Infection was quantified by luciferase assay 24 hours post shift to 37° C. […] Infections were quantified by luciferase assay; bars represented the mean SEM of three individual experiments. […] The fractions of cells in G1 (1n), S (intermediate), and G2/M (2n) phases were expressed as percentages of the total.

[3] = test system: HPV16; assay: HPV16 release from HaCaT cells into media, L1 immunoblot; assay type: cell-based, human papillomavirus; conditions: CM, MMP inhibitor, FIG. 2E
Description: FIG. 2. HPV16 and syndecan-1 release from the HaCaT cell plasma membrane is MMP dependent. (A, B) Immunoblot for syndecan-1 (polyclonal syndecan-1 Ab) after 24 hours at 37° C. in CM (A) or post starvation in SFM and after six hours at 37° C. in Tyrode's Buffer (B); immunoblot for HPV16 L1 released into CM post virus binding for indicated times (C) or 24 hours (E). (D) Gelatin zymography showing protease activity present in HaCaT cell CM alone or with binding of HPV16. (E-F) Effect of MMP inhibitors batimistat (BM) or marimastat (MM) at the indicated concentrations on HPV16 release into media as in panel C and densitometric quantification with AlphaEaseFC software (E) and relative infection levels (F). Cells were untreated (U) or pre-treated with BM or MM for one hour, then exposed to HPV16 PsV in the presence of inhibitors in CM. Infection was assayed by quantifying luciferase levels at 24 hours p.i. (F). Data are represented as mean±SEM of three experiments. […] HPV16 infection was measured with luciferase assay. […]
HaCaT cells were incubated with 200 vge/cell of HPV PsVs for 1 h at 4° C., washed three ties with media and incubated at 37° C. for various times before harvesting the experimental media. […] The eluted fractions were analyzed by SDS-PAGE followed by immunoblotting for HPV16 L1, proteoglycans and growth factors. […]

Structure (SMILES) | HPV16 infection of HaCaT cells (in words) [1] | cell cycle distribution (G1, S, G2/M) versus no treatment [2] | block of HPV16 infection / reduction of infectivity [1] [%] | release of HPV16 from cells [3]
CCOC(=O)C1=C(C)NC(=S)NC1c1cccc(O)c1 (stereo not shown) [monastrol] | promotes infection | increases the number of cells in late M-phase | – | –
COc1cc2ncnc(Nc3cccc(Cl)c3)c2cc1OC [AG1478] | – | – | > 50 | –
C=CC(=O)Nc1ccc2ncnc(Nc3cccc(Br)c3)c2c1 [PD168393] | – | – | > 50 | –
CNC(=O)[C@H](Cc1ccccc1)NC(=O)[C@H](CC(C)C)[C@H](CSc1cccs1)C(=O)NO [batimastat] | efficiently reduced HPV16 infection | relatively similar | – | effectively prevented the release
